Measurements reported in the supplement of paper PMC10849652.
The list shows a part of the results.

The chains behind the UniProt entries cited, without tags or fusion partners. Where a name states a change or a piece, a line headed by the entry shows the natural chain unless it says otherwise.
UniProt P17066, whole entry, looked up: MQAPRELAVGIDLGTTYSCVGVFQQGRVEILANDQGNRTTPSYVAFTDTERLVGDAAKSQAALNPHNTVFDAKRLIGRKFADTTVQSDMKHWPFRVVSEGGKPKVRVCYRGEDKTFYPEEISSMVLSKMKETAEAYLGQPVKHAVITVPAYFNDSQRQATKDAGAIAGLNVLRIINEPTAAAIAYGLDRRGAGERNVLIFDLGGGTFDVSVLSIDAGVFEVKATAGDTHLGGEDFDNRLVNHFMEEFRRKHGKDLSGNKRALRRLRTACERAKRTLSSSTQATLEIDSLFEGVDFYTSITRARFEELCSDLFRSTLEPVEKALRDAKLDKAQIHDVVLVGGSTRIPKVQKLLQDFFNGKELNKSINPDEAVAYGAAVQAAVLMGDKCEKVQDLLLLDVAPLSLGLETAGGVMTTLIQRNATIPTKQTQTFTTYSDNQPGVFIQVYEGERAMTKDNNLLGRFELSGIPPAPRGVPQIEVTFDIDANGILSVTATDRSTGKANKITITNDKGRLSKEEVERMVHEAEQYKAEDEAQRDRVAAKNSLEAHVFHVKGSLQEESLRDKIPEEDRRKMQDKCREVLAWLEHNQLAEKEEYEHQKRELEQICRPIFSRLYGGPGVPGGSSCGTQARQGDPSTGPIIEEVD
UniProt P04792, whole entry, looked up: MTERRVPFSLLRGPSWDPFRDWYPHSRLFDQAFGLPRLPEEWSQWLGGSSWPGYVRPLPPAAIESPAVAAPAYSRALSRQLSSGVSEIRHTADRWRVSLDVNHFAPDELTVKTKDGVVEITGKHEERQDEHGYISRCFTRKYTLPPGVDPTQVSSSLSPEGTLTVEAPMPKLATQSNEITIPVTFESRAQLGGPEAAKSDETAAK
UniProt Q58FF7, whole entry, looked up: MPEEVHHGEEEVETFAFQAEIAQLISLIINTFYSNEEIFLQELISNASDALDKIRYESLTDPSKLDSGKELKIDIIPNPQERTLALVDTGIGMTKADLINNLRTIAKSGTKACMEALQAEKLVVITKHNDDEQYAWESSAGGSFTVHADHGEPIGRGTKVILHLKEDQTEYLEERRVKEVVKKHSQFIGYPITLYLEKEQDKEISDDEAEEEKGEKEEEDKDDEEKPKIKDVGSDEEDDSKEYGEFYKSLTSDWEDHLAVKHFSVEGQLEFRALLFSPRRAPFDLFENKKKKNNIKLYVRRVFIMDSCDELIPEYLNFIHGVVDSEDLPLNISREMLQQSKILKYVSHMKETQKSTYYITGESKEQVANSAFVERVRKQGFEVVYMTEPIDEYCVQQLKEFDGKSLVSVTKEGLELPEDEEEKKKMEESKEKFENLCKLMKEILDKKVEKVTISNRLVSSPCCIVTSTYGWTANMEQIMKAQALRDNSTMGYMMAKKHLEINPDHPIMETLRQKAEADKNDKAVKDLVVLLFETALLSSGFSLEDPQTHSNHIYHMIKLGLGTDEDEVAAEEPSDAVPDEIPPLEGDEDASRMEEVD
UniProt Q9Y547: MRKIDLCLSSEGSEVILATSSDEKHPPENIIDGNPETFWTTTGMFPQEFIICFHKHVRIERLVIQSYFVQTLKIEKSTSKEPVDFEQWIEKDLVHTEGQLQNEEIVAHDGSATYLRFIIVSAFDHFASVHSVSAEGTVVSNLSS
UniProt P09651: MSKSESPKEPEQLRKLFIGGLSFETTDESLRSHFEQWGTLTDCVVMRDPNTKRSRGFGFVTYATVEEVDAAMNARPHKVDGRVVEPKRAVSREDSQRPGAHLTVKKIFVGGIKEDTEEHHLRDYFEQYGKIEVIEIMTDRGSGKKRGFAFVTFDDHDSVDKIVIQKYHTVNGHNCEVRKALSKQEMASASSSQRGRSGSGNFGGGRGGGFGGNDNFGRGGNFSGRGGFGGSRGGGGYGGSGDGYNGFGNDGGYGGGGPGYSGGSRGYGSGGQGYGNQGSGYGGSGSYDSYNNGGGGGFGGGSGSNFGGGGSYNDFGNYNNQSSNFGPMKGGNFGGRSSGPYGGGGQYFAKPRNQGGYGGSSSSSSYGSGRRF
UniProt Q15651: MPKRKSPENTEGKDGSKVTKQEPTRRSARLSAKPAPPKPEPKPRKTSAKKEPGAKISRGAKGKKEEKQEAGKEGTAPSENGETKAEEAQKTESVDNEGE
UniProt Q92598: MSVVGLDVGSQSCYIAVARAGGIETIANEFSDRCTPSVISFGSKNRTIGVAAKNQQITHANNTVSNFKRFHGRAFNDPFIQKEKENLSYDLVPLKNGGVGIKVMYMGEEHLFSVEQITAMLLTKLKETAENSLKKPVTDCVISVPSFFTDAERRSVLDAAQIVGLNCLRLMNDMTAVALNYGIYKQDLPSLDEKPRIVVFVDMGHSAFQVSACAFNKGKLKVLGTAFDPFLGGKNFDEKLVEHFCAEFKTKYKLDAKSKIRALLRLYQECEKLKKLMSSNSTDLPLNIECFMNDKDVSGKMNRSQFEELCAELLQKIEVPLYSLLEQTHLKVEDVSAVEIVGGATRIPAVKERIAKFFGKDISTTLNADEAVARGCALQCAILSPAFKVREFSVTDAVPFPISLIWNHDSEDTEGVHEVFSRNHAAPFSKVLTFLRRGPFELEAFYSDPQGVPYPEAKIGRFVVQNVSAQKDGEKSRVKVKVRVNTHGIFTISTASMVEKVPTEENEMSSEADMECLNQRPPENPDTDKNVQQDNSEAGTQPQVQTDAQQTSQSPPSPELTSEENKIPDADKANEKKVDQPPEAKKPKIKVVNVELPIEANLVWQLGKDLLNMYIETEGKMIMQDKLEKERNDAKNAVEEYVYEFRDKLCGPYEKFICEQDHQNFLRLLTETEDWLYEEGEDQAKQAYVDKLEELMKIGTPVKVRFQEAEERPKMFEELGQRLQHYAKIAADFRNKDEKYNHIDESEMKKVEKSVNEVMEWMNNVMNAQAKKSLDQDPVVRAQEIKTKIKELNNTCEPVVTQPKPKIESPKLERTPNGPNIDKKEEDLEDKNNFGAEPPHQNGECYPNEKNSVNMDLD
UniProt Q14103: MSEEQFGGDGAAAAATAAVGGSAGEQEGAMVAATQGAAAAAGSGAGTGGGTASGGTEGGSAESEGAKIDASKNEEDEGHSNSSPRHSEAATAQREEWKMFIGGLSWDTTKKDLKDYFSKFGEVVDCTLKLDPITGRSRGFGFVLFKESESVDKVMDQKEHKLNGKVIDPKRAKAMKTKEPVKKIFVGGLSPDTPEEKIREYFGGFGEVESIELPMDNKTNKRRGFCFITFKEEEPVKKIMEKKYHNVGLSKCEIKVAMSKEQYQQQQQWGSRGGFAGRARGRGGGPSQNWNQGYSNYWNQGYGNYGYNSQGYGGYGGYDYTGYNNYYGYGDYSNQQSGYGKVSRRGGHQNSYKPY
UniProt Q53GQ0: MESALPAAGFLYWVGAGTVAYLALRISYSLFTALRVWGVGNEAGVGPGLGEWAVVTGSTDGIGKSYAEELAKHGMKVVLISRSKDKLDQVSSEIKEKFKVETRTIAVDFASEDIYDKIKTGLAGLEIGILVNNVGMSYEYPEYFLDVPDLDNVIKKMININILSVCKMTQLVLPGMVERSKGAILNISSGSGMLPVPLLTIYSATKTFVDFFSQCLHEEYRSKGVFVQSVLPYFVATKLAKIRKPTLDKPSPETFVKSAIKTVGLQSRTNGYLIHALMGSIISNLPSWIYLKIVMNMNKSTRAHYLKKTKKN
UniProt P82970: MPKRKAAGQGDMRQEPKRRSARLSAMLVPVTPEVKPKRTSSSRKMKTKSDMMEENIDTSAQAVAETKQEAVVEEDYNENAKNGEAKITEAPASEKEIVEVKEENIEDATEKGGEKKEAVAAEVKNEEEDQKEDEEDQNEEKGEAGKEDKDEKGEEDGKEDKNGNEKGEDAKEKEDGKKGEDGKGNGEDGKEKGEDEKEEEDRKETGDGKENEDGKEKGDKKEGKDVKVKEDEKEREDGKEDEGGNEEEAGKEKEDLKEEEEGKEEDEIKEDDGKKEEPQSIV
UniProt P31937: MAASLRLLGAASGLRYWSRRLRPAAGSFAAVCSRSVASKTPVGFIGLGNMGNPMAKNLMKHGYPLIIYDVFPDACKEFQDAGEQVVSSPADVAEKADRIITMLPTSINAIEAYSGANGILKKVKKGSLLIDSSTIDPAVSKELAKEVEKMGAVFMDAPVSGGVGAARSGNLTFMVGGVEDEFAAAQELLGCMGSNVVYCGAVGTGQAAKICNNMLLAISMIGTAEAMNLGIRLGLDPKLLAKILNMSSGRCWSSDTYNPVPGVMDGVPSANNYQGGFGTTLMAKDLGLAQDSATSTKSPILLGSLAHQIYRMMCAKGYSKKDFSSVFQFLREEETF
UniProt P19367: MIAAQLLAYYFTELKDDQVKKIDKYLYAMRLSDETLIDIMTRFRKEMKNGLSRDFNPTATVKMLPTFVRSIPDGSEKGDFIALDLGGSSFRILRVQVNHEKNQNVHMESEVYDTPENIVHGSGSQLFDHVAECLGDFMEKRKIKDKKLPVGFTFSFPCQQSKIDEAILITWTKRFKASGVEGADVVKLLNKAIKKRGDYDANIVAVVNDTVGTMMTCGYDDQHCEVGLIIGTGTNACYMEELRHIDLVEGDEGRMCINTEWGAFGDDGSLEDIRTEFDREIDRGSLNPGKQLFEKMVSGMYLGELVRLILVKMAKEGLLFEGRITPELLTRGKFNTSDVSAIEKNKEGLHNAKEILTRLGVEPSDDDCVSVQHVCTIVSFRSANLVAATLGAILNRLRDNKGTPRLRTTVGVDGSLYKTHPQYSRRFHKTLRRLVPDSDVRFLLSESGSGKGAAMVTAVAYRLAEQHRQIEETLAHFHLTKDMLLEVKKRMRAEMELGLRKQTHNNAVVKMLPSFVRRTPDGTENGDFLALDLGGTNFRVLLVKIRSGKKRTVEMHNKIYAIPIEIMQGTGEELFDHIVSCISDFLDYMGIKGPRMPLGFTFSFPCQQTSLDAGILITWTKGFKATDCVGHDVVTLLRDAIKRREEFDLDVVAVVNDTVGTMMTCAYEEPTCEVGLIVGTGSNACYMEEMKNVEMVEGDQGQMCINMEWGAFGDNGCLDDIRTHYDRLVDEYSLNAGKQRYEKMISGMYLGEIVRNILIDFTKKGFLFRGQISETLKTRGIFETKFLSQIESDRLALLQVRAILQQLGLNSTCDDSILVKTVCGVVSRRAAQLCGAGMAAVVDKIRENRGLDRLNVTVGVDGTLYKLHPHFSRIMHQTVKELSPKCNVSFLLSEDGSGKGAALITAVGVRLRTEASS
UniProt Q9BUJ2: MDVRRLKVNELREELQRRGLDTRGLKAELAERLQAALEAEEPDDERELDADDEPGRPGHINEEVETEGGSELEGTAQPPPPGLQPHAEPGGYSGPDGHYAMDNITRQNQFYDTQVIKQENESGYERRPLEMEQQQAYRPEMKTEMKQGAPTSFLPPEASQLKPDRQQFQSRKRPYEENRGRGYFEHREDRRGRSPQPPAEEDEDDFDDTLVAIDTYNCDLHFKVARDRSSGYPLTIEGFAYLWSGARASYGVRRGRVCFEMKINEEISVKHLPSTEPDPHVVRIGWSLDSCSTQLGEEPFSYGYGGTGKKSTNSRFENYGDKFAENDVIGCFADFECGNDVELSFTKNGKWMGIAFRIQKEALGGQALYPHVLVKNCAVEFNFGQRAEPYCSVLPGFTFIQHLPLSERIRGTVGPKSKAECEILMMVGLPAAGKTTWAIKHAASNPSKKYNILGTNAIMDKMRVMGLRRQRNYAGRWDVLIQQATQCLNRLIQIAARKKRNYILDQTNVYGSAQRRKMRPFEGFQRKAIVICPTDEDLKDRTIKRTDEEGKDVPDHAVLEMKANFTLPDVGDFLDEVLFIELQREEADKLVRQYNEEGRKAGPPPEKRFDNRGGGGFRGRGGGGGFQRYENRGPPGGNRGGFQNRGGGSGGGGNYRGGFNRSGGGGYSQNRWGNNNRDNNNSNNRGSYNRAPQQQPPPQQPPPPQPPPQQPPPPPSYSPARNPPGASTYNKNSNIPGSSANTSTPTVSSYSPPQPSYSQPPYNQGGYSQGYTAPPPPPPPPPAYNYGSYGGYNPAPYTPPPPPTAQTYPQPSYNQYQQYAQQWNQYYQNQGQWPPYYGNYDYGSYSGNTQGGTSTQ
UniProt Q6NVY1: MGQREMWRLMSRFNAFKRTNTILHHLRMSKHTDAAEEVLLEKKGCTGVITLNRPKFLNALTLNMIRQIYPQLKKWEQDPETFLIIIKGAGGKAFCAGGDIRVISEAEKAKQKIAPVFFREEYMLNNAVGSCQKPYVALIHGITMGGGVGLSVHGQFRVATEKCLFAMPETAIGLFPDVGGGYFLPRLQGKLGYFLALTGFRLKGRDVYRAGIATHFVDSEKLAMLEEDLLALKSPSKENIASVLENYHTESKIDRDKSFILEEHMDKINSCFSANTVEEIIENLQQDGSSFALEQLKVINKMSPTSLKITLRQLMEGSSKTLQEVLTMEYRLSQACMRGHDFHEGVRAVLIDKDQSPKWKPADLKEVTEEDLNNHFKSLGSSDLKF

These targets were tested with COc1cccc2cc(-c3nc([C@H]4CC[C@H](C(=O)O)CC4)n4ncnc(N)c34)[nH]c12 (assay: log2 fold change, soluble protein after heating vs DMSO (PISA); higher = thermal stabilisation; K562 cells, 10 uM, 30 min; active = over 0.2 and 3.5 SD of the protein, either way, in both replicates (recomputed)).
Method in brief: (§1)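 K562 cells at 2×10^6 cells/mL were given 10 μM compound for 30 min. Aliquots then went through 3 min of heating across 48°C-58°C, were pooled, and were extracted in PBS with 0.5% NP-40 at 4°C, and the supernatant after 21,000xg for 90 min was quantified by TMTpro 16plex LC-MS/MS with channel sums equalised. Thermal stability relative to control samples, from duplicates, is given as log2 fold change.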

Row | Target | log2 fold change
1 | HOXB9 (UniProt P17482) | inactive: -0.068
2 | HSPA6 (UniProt P17066) | inactive: -0.016
3 | HSPB1 (UniProt P04792) | inactive: -0.105
4 | HSPBP1 isoform 3 (UniProt Q9NZL4) | inactive: -0.039
5 | HSP90AB3P (UniProt Q58FF7) | inactive: 0.035
6 | HSPB11 (UniProt Q9Y547) | inactive: -0.027
7 | HNRNPA1 (UniProt P09651) | inactive: -0.118
8 | HMGN3 (UniProt Q15651) | inactive: 0.009
9 | HSD17B8 (UniProt Q92506) | inactive: 0.08
10 | HSPA14 (UniProt Q0VDF9) | inactive: -0.094
11 | HUS1 (UniProt O60921) | inactive: 0.001
12 | HIRIP3 (UniProt Q9BW71) | inactive: 0.02
13 | HSPH1 (UniProt Q92598) | inactive: -0.073
14 | HSP90AA4P (UniProt Q58FG1) | inactive: 0.117
15 | HNRNPD isoform 4 (UniProt Q14103) | inactive: -0.122
16 | HYOU1 (UniProt Q9Y4L1) | inactive: -0.072

Row | Target | log2 fold change
17 | HMGCL (UniProt P35914) | inactive: 0.031
18 | HGS (UniProt O14964) | inactive: -0.015
19 | HSD17B12 (UniProt Q53GQ0) | inactive: 0.045
20 | HMGN5 (UniProt P82970) | inactive: 0.031
21 | HSPG2 (UniProt P98160) | inactive: 0.067
22 | HIST2H2BF isoform 2 (UniProt Q5QNW6) | inactive: -0.314
23 | HIBADH (UniProt P31937) | inactive: 0.074
24 | HIST2H3A (UniProt Q71DI3) | inactive: -0.367
25 | ICAM4 (UniProt Q14773) | inactive: 0.013
26 | HK1 isoform 2 (UniProt P19367) | inactive: 0.052
27 | HTRA2 (UniProt O43464) | inactive: 0.027
28 | HSPA1L (UniProt P34931) | inactive: -0.05
29 | HNRNPD (UniProt Q14103) | inactive: -0.041
30 | HNRNPUL1 (UniProt Q9BUJ2) | inactive: 0.009
31 | HIBCH (UniProt Q6NVY1) | inactive: 0.031

The targets below were run with CS(=O)(=O)CCNCc1ccc(-c2ccc3ncnc(Nc4ccc(OCc5cccc(F)c5)c(Cl)c4)c3c2)o1 [lapatinib] in the same assay as above.
Method in brief: as §1

Row | Target | log2 fold change
32 | HOXB9 (UniProt P17482) | inactive: -0.035
33 | HSPA6 (UniProt P17066) | inactive: -0.062
34 | HSPB1 (UniProt P04792) | inactive: -0.02
35 | HSPBP1 isoform 3 (UniProt Q9NZL4) | inactive: 0.037
36 | HSP90AB3P (UniProt Q58FF7) | inactive: -0.03
37 | HSPB11 (UniProt Q9Y547) | inactive: 0.01
38 | HNRNPA1 (UniProt P09651) | inactive: 0.028
39 | HMGN3 (UniProt Q15651) | inactive: -0.082
40 | HSD17B8 (UniProt Q92506) | inactive: 0.026
41 | HSPA14 (UniProt Q0VDF9) | inactive: -0.044
42 | HUS1 (UniProt O60921) | inactive: 0.001
43 | HIRIP3 (UniProt Q9BW71) | inactive: -0.006
44 | HSPH1 (UniProt Q92598) | inactive: 0.001
45 | HSP90AA4P (UniProt Q58FG1) | inactive: -0.134
46 | HNRNPD isoform 4 (UniProt Q14103) | inactive: 0.031
47 | HYOU1 (UniProt Q9Y4L1) | inactive: -0.036

Row | Target | log2 fold change
48 | HMGCL (UniProt P35914) | inactive: -0.014
49 | HGS (UniProt O14964) | inactive: -0.016
50 | HSD17B12 (UniProt Q53GQ0) | active: 0.369
51 | HMGN5 (UniProt P82970) | inactive: -0.016
52 | HSPG2 (UniProt P98160) | inactive: 0.061
53 | HIST2H2BF isoform 2 (UniProt Q5QNW6) | inactive: 0.047
54 | HIBADH (UniProt P31937) | inactive: -0.004
55 | HIST2H3A (UniProt Q71DI3) | inactive: 0.065
56 | ICAM4 (UniProt Q14773) | inactive: 0.044
57 | HK1 isoform 2 (UniProt P19367) | inactive: -0.074
58 | HTRA2 (UniProt O43464) | inactive: 0.007
59 | HSPA1L (UniProt P34931) | inactive: -0.011
60 | HNRNPD (UniProt Q14103) | inactive: 0.06
61 | HNRNPUL1 (UniProt Q9BUJ2) | inactive: 0.031
62 | HIBCH (UniProt Q6NVY1) | inactive: 0.005

These targets were tested with CS(=O)(=O)N1CCN(Cc2cc3nc(-c4cccc5[nH]ncc45)nc(N4CCOCC4)c3s2)CC1 [pictilisib] in the same assay as above.
Method in brief: as §1

Row | Target | log2 fold change
63 | HSPA6 (UniProt P17066) | inactive: 0.01
64 | HSPB1 (UniProt P04792) | inactive: -0.019
65 | HSPBP1 isoform 3 (UniProt Q9NZL4) | inactive: -0.004
66 | HSP90AB3P (UniProt Q58FF7) | inactive: 0.052
67 | HSPB11 (UniProt Q9Y547) | inactive: 0.137
68 | HNRNPA1 (UniProt P09651) | inactive: -0.018
69 | HMGN3 (UniProt Q15651) | inactive: -0.132
70 | HSD17B8 (UniProt Q92506) | inactive: -0.013
71 | HSPA14 (UniProt Q0VDF9) | inactive: -0.033
72 | HUS1 (UniProt O60921) | inactive: 0.111
73 | HIRIP3 (UniProt Q9BW71) | inactive: -0.024
74 | HSPH1 (UniProt Q92598) | inactive: -0.009
75 | HSP90AA4P (UniProt Q58FG1) | inactive: 0.211
76 | HNRNPD isoform 4 (UniProt Q14103) | inactive: -0.13
77 | HYOU1 (UniProt Q9Y4L1) | inactive: -0.046
78 | HMGCL (UniProt P35914) | inactive: 0.01
79 | HGS (UniProt O14964) | inactive: 0.036
80 | HSD17B12 (UniProt Q53GQ0) | inactive: 0.102
81 | HMGN5 (UniProt P82970) | inactive: -0.018
82 | HSPG2 (UniProt P98160) | inactive: 0.115
83 | HIST2H2BF isoform 2 (UniProt Q5QNW6) | inactive: -0.137
84 | HIBADH (UniProt P31937) | inactive: -0.007
85 | HIST2H3A (UniProt Q71DI3) | inactive: -0.021
86 | ICAM4 (UniProt Q14773) | inactive: 0.146
87 | HK1 isoform 2 (UniProt P19367) | inactive: -0.033
88 | HTRA2 (UniProt O43464) | inactive: -0.083
89 | HSPA1L (UniProt P34931) | inactive: -0.033
90 | HNRNPD (UniProt Q14103) | inactive: -0.021
91 | HNRNPUL1 (UniProt Q9BUJ2) | inactive: 0.014
92 | HIBCH (UniProt Q6NVY1) | inactive: 0.068
